# Assay results reported in PubChem BioAssay AID2417 (National Center for Advancing Translational Sciences (NCATS), 2010).
# The whole screen tested about 140,000 compounds, of which about 4,300 (3.1%) were called active. This list was built around the results that the source calls inconclusive (neither active nor inactive); the mix of calls is not that of the screen.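 The calls were made as follows: active = readout at or below -70, meaning at least 70% loss of cells showing the perinucleolar compartment, a nuclear body marking cancer cells; inconclusive = readout between -30 and a set limit; inactive = the rest.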
# Experiment: High Content Assay for Compounds that inhibit the Assembly of the Perinucleolar Compartment;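 also: plate controls were DMSO wells for no effect and camptothecin positive control wells for full effect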
# Conditions: PC3M PTB-GFP, PNC prevalence imaging, 16 h; at 10 µM; stronger effect = lower value
# Method in brief: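 Compounds are pinned in duplicate onto adhered PC3M cells stably expressing GFP-tagged PTB and incubated 16 h at 37 C. Cells are then fixed, nuclei stained with Hoechst, and PNC-positive cells counted.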
row,Structure (SMILES),"activity change (PNC), negative = inhibition"
1,NNc1nc(-c2ccccc2)nc2sc3c(c12)CCCC3,inconclusive: -44.6%
2,COc1ccccc1/C=C/C=N/NC(=O)Cc1cccn1C,inconclusive: -69.3%
3,Cc1nnc(NC(=O)CSc2cn(CCNC(=O)c3ccccc3)c3ccccc23)s1,inconclusive: -34%
4,COc1cc2c(cc1OC)CN(C(=O)COc1ccc(C#N)cc1)CC2,inconclusive: -45.3%
5,CCOC(=O)Cc1csc(NC(=O)Nc2ccccc2)n1,inconclusive: -39.6%
6,NNc1nc2ccc(Cl)cc2s1,inactive: 46%
7,COc1cccc(-c2nnc3n2N=C(C(C)(C)C)CS3)c1,inactive: 56.8%
8,COc1ccc(NC(=S)NCCCc2ccccc2)cc1,inconclusive: -41.7%
9,Fc1ccc(C(CCCn2nnc(-c3cccnc3)n2)c2ccc(F)cc2)cc1,inconclusive: -30.1%
10,CCOC(=O)CSc1nnc(N)s1,inactive: -12.1%
11,Oc1ccc(CNc2ccccc2)c2cccnc12,inactive: -29.7%
12,O=C(C1CCN(S(=O)(=O)c2cccc3cccnc23)CC1)N1CCN(C2CCCC2)CC1,inconclusive: -48.7%
13,O=C1O/C(=C/c2ccccc2)c2ccccc21,inconclusive: -45.4%
14,CCCNC(=O)C1CCN(c2nc(C)cc(C)n2)CC1,inconclusive: -43.4%
15,COc1cc(S(=O)(=O)Nc2cccc(C)c2)ccc1NC(=O)c1ccncc1,inactive: -20.1%
16,Cc1cc(CSc2ccccc2)ccc1NC(=O)COc1ccccc1,inconclusive: -38.6%
17,CC1CCc2nc(NC(=O)CN3CCN(Cc4ccc5c(c4)OCO5)CC3)sc2C1 (centres undefined),inactive: 38%
18,CCSc1nccc(-c2nn(-c3ccc(C)cc3)ccc2=O)n1,inconclusive: -51.5%
19,Clc1ccc2scc(CN3CCCCC3)c2c1,inconclusive: -34.7%
20,COc1ccc(C(=O)Nc2ccc(OC)c(OC)c2)cc1,inactive: 20.1%
21,COc1ccc(S(=O)(=O)N2CCN(C(=O)Cc3cccs3)CC2)cc1,inconclusive: -47.4%
22,C=CCSc1nc(NC)c2sccc2n1,inactive: 8.68%
23,CCCSc1nc2c(c(=O)[nH]c(=O)n2C)n1Cc1ccc(C)cc1,inconclusive: -37%
24,Cc1ccc2nc(NC(=O)c3ccc4c(c3)OCO4)sc2c1,inconclusive: -30.5%

row,Structure (SMILES),"activity change (PNC), negative = inhibition"
1,Cc1cc(C)c(C#N)c(SCC(=O)N2CCCCC2)n1,inactive: 18.1%
2,COc1ccc(NC(=O)N2c3ccc(OC)cc3C(C)=CC2(C)C)cc1,inactive: 52.6%
3,COc1ccc(OC)c(NC(=O)Nc2ccc(Cl)cc2)c1,inconclusive: -57.1%
4,COc1ccc(C(=O)CN2CCN(c3ccc(F)cc3)CC2)cc1OC,inactive: 62%
5,CCCn1c(SCC(=O)c2ccc3c(c2)NC(=O)CO3)nc2ccccc21,inactive: 22.8%
6,CN(Cc1nc(-c2cccnc2)no1)S(=O)(=O)c1ccc2ccccc2c1,inactive: 27.3%
7,CCCCCC(=O)Nc1nc(C)c(-c2csc(Nc3ccccc3OC)n2)s1,inconclusive: -68.4%
8,CC(/C=N/Nc1nc(C)cc(C)n1)=C\c1ccc(C(C)C)cc1,active: -114%
9,Cc1ccc(OCC(=O)OCC(=O)c2c(N)n(C)c(=O)n(C)c2=O)cc1C,inconclusive: -65.2%
10,c1ccc(N2CCN(c3nc4cc5c(cc4s3)OCCO5)CC2)cc1,inconclusive: -57.3%
11,COc1ccc(CNCCC(c2ccc(OC(C)C)cc2)C(C)C)cc1OC (centres undefined),inconclusive: -36.6%
12,CC(C)CN(C(=O)CN1CCN(c2ccc(O)cc2)CC1)c1c(N)n(CC(C)C)c(=O)[nH]c1=O,inconclusive: -70.9%
13,Cc1ccc(C(=O)Oc2cc(C)n(C)c(=O)c2)cc1,inactive: -29.9%
14,Cc1ccc(OCC(=O)c2cc(C)n(C)c2C)c([N+](=O)[O-])n1,active: -121%
15,CC(=O)N1CCN(CC(=O)Nc2ccc(SC(F)F)cc2)CC1,inconclusive: -31.7%
16,CCCOc1ccc(NCC(=O)Nc2ccc(C)cc2C)cc1,inactive: -29.3%
17,CCOC(=O)C1=C(C)N(C)C(C)=C(C(=O)OCC)C1c1ccc(Cl)cc1,inconclusive: -45.2%
18,Cc1c(Br)cc(-c2nnco2)cc1Br,inconclusive: -46.3%
19,COC(=O)c1sc(S(=O)(=O)Nc2ccc(C)c(C)c2)c(C(=O)OC)c1C,inconclusive: -39.2%
20,O=C(OCc1nnc(-c2ccc(Cl)cc2)o1)c1ccc(=O)n(Cc2ccccc2)n1,inconclusive: -69.4%
21,O=C(O)CSC(NC(=O)c1cccnc1)(C(F)(F)F)C(F)(F)F,inconclusive: -47.5%
22,CCOC(=O)c1c(C)[nH]c(C)c1C(=O)CSc1nnc(-c2ccco2)n1Cc1ccccc1,inactive: 34.1%
23,Cc1c(NC(=O)C23CC4CC(CC(C)(C4)C2)C3)c(=O)n(-c2ccccc2)n1C,inconclusive: -44%
24,CCNS(=O)(=O)c1ccc(OCCNS(C)(=O)=O)cc1,inactive: 49.3%

row,Structure (SMILES),"activity change (PNC), negative = inhibition"
1,CC(=O)c1cccc(S(=O)(=O)NC2CCCCCC2)c1,inactive: 19.8%
2,COCc1cc(=O)[nH]c(/N=C(\N)Nc2ccc(C)cc2)n1,inactive: 47.8%
3,COc1cc(OC)c2c(OC)cccc2n1,inconclusive: -59.8%
4,CCn1c(CNC(=O)c2ccccc2)nnc1SCC(=O)N1CCN(c2ccccc2)CC1,inconclusive: -52.3%
5,CC(=O)NCCCCCCNC(C)=O,inconclusive: -53.3%
6,O=C(CCS(=O)(=O)c1cc(Br)cc2c1N(C(=O)C1CC1)CC2)NCc1ccco1,inactive: -25.8%
7,COc1cc(OC)c(NC(=O)Nc2ccc(OC)c(OC)c2)cc1Cl,inconclusive: -30.7%
8,Nc1nc(SCc2c(Cl)cccc2Cl)n[nH]1,inconclusive: -50.4%
9,Cn1c2c(c(=O)n(C)c1=O)C1c3ccccc3OCC1C(C)(C)O2 (centres undefined),inconclusive: -31.9%
10,O=C(C1CCCN1S(=O)(=O)c1cccc2cccnc12)N1CCN(c2ccccc2)CC1 (centres undefined),inconclusive: -75.3%
11,CCOC(=O)C(Oc1ccc2c(-c3ccccc3)cc(=O)oc2c1)c1ccccc1 (centres undefined),inconclusive: -33.5%
12,COC(=O)CSc1ccc(S(=O)(=O)N2CCOCC2)cc1[N+](=O)[O-],inconclusive: -45.7%
13,Cc1cccc(-n2nnnc2SC(C)C(=O)NCCC2=CCCCC2)c1 (centres undefined),inactive: -3.4%
14,Cc1cccc(NC(=O)N[C@@H](C)C(=O)O)c1,active: -113%
15,Cc1cc(C)n(/N=C/c2ccc(C(C)C)cc2)c(=O)c1C#N,inconclusive: -60.8%
16,CC(=O)Nc1ccc2nc(-c3cccnc3)[nH]c2c1,active: -100%
17,N#Cc1cc([N+](=O)[O-])cnc1Nc1ccccc1,inactive: -5.99%
18,Cc1ccc(S(=O)(=O)/N=C(\CN2CCOCC2)N2CCCC2)cc1,inconclusive: -72.5%
19,COc1ccc(CCNC(=O)CSc2nc(C)nc3c2c(=O)n(C)c(=O)n3C)cc1OC,inactive: -7.13%
20,Cc1ccc2cc(CN(C(=O)c3ccco3)c3ccccc3C)c(=O)[nH]c2c1,inactive: 43.6%
21,O=C(Nc1nccs1)C1CCCN1S(=O)(=O)c1ccc(Cl)cc1 (centres undefined),inconclusive: -33.8%
22,CC1=C(C(=O)NCc2ccccc2)C(c2cccnc2)n2ncnc2N1 (centres undefined),inactive: 8.05%
23,O=C(CCN1CCC(c2ccccc2)C1)c1ccccc1 (centres undefined),inactive: 53.5%
24,COc1ccccc1C(CCNS(=O)(=O)c1ccc(C)cc1)c1ccco1 (centres undefined),inactive: 27.2%

# Quoted at random: 3 entries already listed
row,Structure (SMILES),"activity change (PNC), negative = inhibition"
4,CCn1c(CNC(=O)c2ccccc2)nnc1SCC(=O)N1CCN(c2ccccc2)CC1,inconclusive: -52.3%
3,Cc1nnc(NC(=O)CSc2cn(CCNC(=O)c3ccccc3)c3ccccc23)s1,inconclusive: -34%
20,COc1ccc(C(=O)Nc2ccc(OC)c(OC)c2)cc1,inactive: 20.1%

# (further entries)

row,Structure (SMILES),"activity change (PNC), negative = inhibition"
1,COc1cccc(C(c2c(O)nc(SC)n(C)c2=O)c2c(O)nc(SC)n(C)c2=O)c1,inconclusive: -33.4%
2,O=C1c2cccnc2C(O)N1Cc1ccccc1 (centres undefined),inactive: 0.394%
3,O=C(Nc1cccnc1)C1(c2ccccc2)CCCC1,inconclusive: -39.8%
4,Cc1ccc(NC(=O)CSc2nnc(-c3cnccn3)n2Cc2ccco2)cc1,inconclusive: -54.2%
5,O=C(O)Cn1nnn(-c2ccccc2)c1=S,inconclusive: -40.7%
6,CCSc1nc(N2CCOCC2)c2c(c1C#N)CCCC2,inactive: 35.7%
7,COc1cc(C(=O)Nc2ccncc2)cc(OC)c1OC,inconclusive: -44.6%
8,COc1ccc(CC(=O)Nc2cc(C)on2)cc1OC,inconclusive: -37.1%
9,Cn1c(=O)c2c(nc(NCCc3ccccc3)n2CC(=O)NCCc2ccccc2)n(C)c1=O,inconclusive: -46.5%
10,CCOC(=O)c1c(C)[nH]c(C(=O)N/N=C\c2ccccc2O)c1C,inconclusive: -40.6%
11,CCN1CCN(CCC(=O)Nc2ccc3c(c2)OCO3)CC1,inconclusive: -35.4%
12,O=C(Nc1nc(-c2nc3ccccc3s2)cs1)c1ccco1,inconclusive: -36.5%
13,O=C1CC(N2CCCN(C3CC(=O)N(c4ccc(F)cc4)C3=O)CC2)C(=O)N1c1ccc(F)cc1 (centres undefined),inactive: -12.8%
14,COc1cc(C)ccc1OCCOc1c(C)cc(Cl)cc1Cl,inactive: -5.5%
15,Cc1ccc2cc(CN(CCCN(C)C)C(=O)NCc3ccccc3)c(=O)[nH]c2c1C,inconclusive: -31.6%
16,O=C(OCn1ncc(Cl)c(Cl)c1=O)c1cccc(C(F)(F)F)c1,inconclusive: -73.4%
17,CCOc1ccc(S(=O)(=O)N(CC(=O)NCC(F)(F)F)Cc2ccco2)cc1,inactive: 52.1%
18,Cc1cc(C(=O)NCC(c2ccco2)N(C)C)no1 (centres undefined),active: -92.8%
19,Cc1cc(C=O)c(C)n1-c1cc(C(F)(F)F)ccc1N1CCOCC1,inconclusive: -37.9%
20,CCOC(=O)Cn1c(CN2CCOCC2)nc2c1c(=O)[nH]c(=O)n2C,inconclusive: -51.5%
21,Cc1ccc(-c2nc3ncccn3c2Nc2ccc3c(c2)OCO3)o1,active: -119%
22,CC1CCCCC1NC(=O)c1cncc(Br)c1 (centres undefined),active: -80.7%
